Experimental data: PubChem BioAssay AID743458 (Peter MacCallum Cancer Centre, 2014)

Test: 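Retest earlier hits with independent siRNAs per gene for restoring vorinostat sensitivity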 (follow-up of hits)
System: human HCT116-VR colon cancer cells made resistant to vorinostat
Reagent: single siRNA or pool against human genes, 25 nM per single siRNA
Duration: about 72 h after transfection, including 24 h of drug
Conditions: vorinostat, 2.5 µM final, for 24 h
Detection: 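Cell viability by fluorescence and apoptosis by caspase 3/7 luminescence under vorinostat, background-corrected, averaged across two plate copies and given as fold change versus mock transfection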
Direction: viability relative to mock: higher = more living cells than mock; caspase activity relative to mock: higher = more apoptosis than mock
Active means: 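An siRNA counts as active if classed as reduced viability or as caspase activation, otherwise inactive; a hit class needed wells that remained healthy in the absence of drug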
Here is one part, drawn at random, of about 1,800 reagents tested. 732 of them (41%) were called active. 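Calls are per siRNA reagent; a gene was deemed confirmed only if most of its four siRNAs scored.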 A number with no mark means an inactive call. The numbers tell different reagents against one gene apart.

What is on record for TOMM70 (translocase of outer mitochondrial membrane 70) #1?
viability relative to mock: 0.69; caspase activity relative to mock: 1.29; viability hit class: no change; caspase hit class: no change

With TOMM70 (translocase of outer mitochondrial membrane 70) #2, what does the deposit list?
viability relative to mock: 0.88 (active); caspase activity relative to mock: 3; viability hit class: no change; caspase hit class: caspase activation

What did the screen give for TOMM70 (translocase of outer mitochondrial membrane 70) #3?
viability relative to mock: 0.4 (active); caspase activity relative to mock: 2.5; viability hit class: reduced viability; caspase hit class: no change

With TOMM70 (translocase of outer mitochondrial membrane 70) #4, how do the results read?
viability relative to mock: 0.88; caspase activity relative to mock: 0.9; viability hit class: no change; caspase hit class: no change

For UBE2Q1 (ubiquitin conjugating enzyme E2 Q1) #1, what does the deposit list?
viability relative to mock: 1.12; caspase activity relative to mock: 1.73; viability hit class: no change; caspase hit class: no change

What did the screen give for UBE2Q1 (ubiquitin conjugating enzyme E2 Q1) #2?
viability relative to mock: 1.03; caspase activity relative to mock: 1.23; viability hit class: no change; caspase hit class: no change

How did the screen score UBE2Q1 (ubiquitin conjugating enzyme E2 Q1) #3?
viability relative to mock: 0.9; caspase activity relative to mock: 0.99; viability hit class: no change; caspase hit class: no change

With UBE2Q1 (ubiquitin conjugating enzyme E2 Q1) #4, what does the deposit list?
viability relative to mock: 0.83; caspase activity relative to mock: 1.62; viability hit class: no change; caspase hit class: no change

For CCDC126 (coiled-coil domain containing 126) #1, how do the results read?
viability relative to mock: 0.91; caspase activity relative to mock: 1.06; viability hit class: no change; caspase hit class: no change

What is on record for CCDC126 (coiled-coil domain containing 126) #2?
viability relative to mock: 0.64 (active); caspase activity relative to mock: 4.54; viability hit class: no change; caspase hit class: caspase activation

What did the screen give for CCDC126 (coiled-coil domain containing 126) #3?
viability relative to mock: 0.66 (active); caspase activity relative to mock: 4.07; viability hit class: no change; caspase hit class: caspase activation

With CCDC126 (coiled-coil domain containing 126) #4, what was measured?
viability relative to mock: 0.87; caspase activity relative to mock: 1.08; viability hit class: no change; caspase hit class: no change

Which result is listed for SMR3B (submaxillary gland androgen regulated protein 3B) #1?
viability relative to mock: 0.51 (active); caspase activity relative to mock: 2.54; viability hit class: reduced viability; caspase hit class: no change

For SMR3B (submaxillary gland androgen regulated protein 3B) #2, how do the results read?
viability relative to mock: 0.68 (active); caspase activity relative to mock: 5.33; viability hit class: no change; caspase hit class: caspase activation

For SMR3B (submaxillary gland androgen regulated protein 3B) #3, how do the results read?
viability relative to mock: 0.56; caspase activity relative to mock: 1.34; viability hit class: no change; caspase hit class: no change

How did the screen score SMR3B (submaxillary gland androgen regulated protein 3B) #4?
viability relative to mock: 0.86; caspase activity relative to mock: 1.04; viability hit class: no change; caspase hit class: no change

Which result is listed for SEMA4F (ssemaphorin 4F) #1?
viability relative to mock: 0.61 (active); caspase activity relative to mock: 6.38; viability hit class: no change; caspase hit class: caspase activation

With SEMA4F (ssemaphorin 4F) #2, what does the deposit list?
viability relative to mock: 1 (active); caspase activity relative to mock: 2.97; viability hit class: no change; caspase hit class: caspase activation

What is on record for SEMA4F (ssemaphorin 4F) #3?
viability relative to mock: 0.96; caspase activity relative to mock: 1.72; viability hit class: no change; caspase hit class: no change

For SEMA4F (ssemaphorin 4F) #4, how do the results read?
viability relative to mock: 0.76; caspase activity relative to mock: 1.09; viability hit class: no change; caspase hit class: no change

With ADTRP (androgen dependent TFPI regulating protein) #1, what does the deposit list?
viability relative to mock: 0.63 (active); caspase activity relative to mock: 5.37; viability hit class: no change; caspase hit class: caspase activation

How did the screen score ADTRP (androgen dependent TFPI regulating protein) #2?
viability relative to mock: 0.94; caspase activity relative to mock: 1.47; viability hit class: no change; caspase hit class: no change

What did the screen give for ADTRP (androgen dependent TFPI regulating protein) #3?
viability relative to mock: 0.59 (active); caspase activity relative to mock: 3.55; viability hit class: no change; caspase hit class: caspase activation

How did the screen score ADTRP (androgen dependent TFPI regulating protein) #4?
viability relative to mock: 0.96; caspase activity relative to mock: 1.19; viability hit class: no change; caspase hit class: no change

With PNKP (polynucleotide kinase 3'-phosphatase) #1, what was measured?
viability relative to mock: 0.34 (active); caspase activity relative to mock: 1.6; viability hit class: reduced viability; caspase hit class: no change

What did the screen give for PNKP (polynucleotide kinase 3'-phosphatase) #2?
viability relative to mock: 0.68; caspase activity relative to mock: 0.99; viability hit class: no change; caspase hit class: no change

With PNKP (polynucleotide kinase 3'-phosphatase) #3, how do the results read?
viability relative to mock: 0.61 (active); caspase activity relative to mock: 3.45; viability hit class: no change; caspase hit class: caspase activation

What did the screen give for PNKP (polynucleotide kinase 3'-phosphatase) #4?
viability relative to mock: 1.02; caspase activity relative to mock: 1.06; viability hit class: no change; caspase hit class: no change

Ordered by “caspase activity relative to mock” (high to low): 2 of the entries above.
SEMA4F (ssemaphorin 4F) #3 | viability relative to mock = 0.96; caspase activity relative to mock = 1.72; viability hit class = no change; caspase hit class = no change
SEMA4F (ssemaphorin 4F) #4 | viability relative to mock = 0.76; caspase activity relative to mock = 1.09; viability hit class = no change; caspase hit class = no change
